Values from PubChem BioAssay AID1053208 (Peter MacCallum Cancer Centre, 2014).

- Screen: 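Find knock-downs that sensitise mouse osteosarcoma cells to doxorubicin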 (primary screen)
- Cells: mouse osteosarcoma cells, early-passage culture from an engineered mouse model of fibroblastic bone tumour
- Knock-down reagent: siRNA pool against mouse genes, 40 nM
- Timing: about 120 h (48 h before drug, then 72 h with drug)
- Conditions: doxorubicin 100 nM for 72 h, roughly 30-40% inhibitory dose
- Measured: 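Viability read as ATP luminescence after 72 h of 100 nM doxorubicin or none, duplicate wells averaged, scaled to non-targeting siRNA, then expressed as robust z-scores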
- Reading the numbers: viability z-score with doxorubicin and doxorubicin viability vs non-targeting: higher = more viable cells under doxorubicin; viability z-score without drug: higher = more viable cells with knock-down alone; z-score of drug to no-drug ratio: higher = less drug sensitisation by knock-down
- Active means: 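Called active if knock-down leaves viability unchanged without drug (z within -2 to 2) but lowers it with doxorubicin (z at or under -2)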
In all, the deposit lists about 17,000 reagents; this is a part drawn at random. Over the whole deposit, 788 (4.7%) are marked active. 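Calls rest on z-score classes alone; an extra cut-off of viability at most 70% of control was not applied to them.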 Reagents against one gene are numbered here.

| gene | reagent | combined z-score class | viability z-score with doxorubicin | viability z-score without drug | z-score of drug to no-drug ratio | doxorubicin viability vs non-targeting | activity call |
| --- | --- | --- | --- | --- | --- | --- | --- |
| Ttll12 | 1 | no change with or without drug | -0.22 | -0.34 | 0.11 | 0.92 | inactive |
| Zfp358 | 1 | no change with or without drug | 1.46 | 0.51 | 1.24 | 1.07 | inactive |
| Gm5148 | 1 | no change with or without drug | 0 | -1.52 | 1.24 | 0.94 | inactive |
| Or13e8 | 1 | no change with or without drug | -1.35 | -0.84 | -0.79 | 0.82 | inactive |
| Asb4 | 1 | no change with or without drug | -1.8 | -0.17 | -1.69 | 0.78 | inactive |
| Snrpe | 1 | low cell count with and without drug | -6.97 | -5.23 | -5.4 | 0.32 | inactive |
| Defb5 | 1 | no change with or without drug | -0.22 | -0.84 | 0.45 | 0.92 | inactive |
| Arc | 1 | no change with or without drug | -0.22 | 0.17 | -0.22 | 0.92 | inactive |
| Slc5a2 | 1 | no change with or without drug | 0.45 | 0.84 | 0 | 0.98 | inactive |
| Pick1 | 1 | no change with or without drug | 0.9 | 1.18 | 0.22 | 1.02 | inactive |
| Fhod1 | 1 | no change with or without drug | 0.9 | 0.84 | 0.45 | 1.02 | inactive |
| Kcnf1 | 1 | no change with or without drug | 0.79 | 1.69 | -0.22 | 1.01 | inactive |
| Snapc1 | 1 | no change with or without drug | -0.11 | 0.17 | -0.11 | 0.93 | inactive |
| Tspan1 | 1 | no change with or without drug | 1.01 | 1.18 | 0.34 | 1.03 | inactive |
| Tfap2e | 1 | high cell count with doxorubicin only | 2.36 | 0.17 | 2.47 | 1.15 | inactive |
| Swi5 | 1 | high cell count with doxorubicin only | 3.26 | 0.17 | 3.37 | 1.23 | inactive |
| Strip2 | 1 | no change with or without drug | -1.01 | 0.67 | -1.35 | 0.85 | inactive |
| ZFP236 | 1 | no change with or without drug | 0 | -0.67 | 0.56 | 0.94 | inactive |
| Nudt3 | 1 | no change with or without drug | 0.45 | -1.01 | 1.35 | 0.98 | inactive |
| Pla2g7 | 1 | high cell count without drug only | 1.57 | 2.36 | 0.11 | 1.08 | inactive |
| Vps37b | 1 | no change with or without drug | 0.45 | -0.51 | 1.01 | 0.98 | inactive |
| Sntn | 1 | no change with or without drug | -0.9 | -1.35 | 0.11 | 0.86 | inactive |
| Or7g31 | 1 | no change with or without drug | -0.34 | -0.17 | -0.11 | 0.91 | inactive |
| Gbx2 | 1 | no change with or without drug | -0.22 | -0.67 | 0.34 | 0.92 | inactive |
| Gmppa | 1 | no change with or without drug | 0.22 | -0.17 | 0.45 | 0.96 | inactive |
| Fanca | 1 | low cell count with doxorubicin only | -2.02 | 0.51 | -2.25 | 0.76 | active |
| Ctla4 | 1 | no change with or without drug | 0.67 | -0.51 | 1.24 | 1 | inactive |
| Dcpp1 | 1 | no change with or without drug | 1.46 | 0.51 | 1.24 | 1.07 | inactive |
| Dcpp1 | 2 | low cell count with and without drug | -2.14 | -2.7 | -0.34 | 0.75 | inactive |
| Slc60a1 | 1 | no change with or without drug | -0.67 | -0.17 | -0.45 | 0.88 | inactive |
| Tomm20 | 1 | no change with or without drug | 1.12 | -0.17 | 1.46 | 1.04 | inactive |
| Cebpd | 1 | low cell count with doxorubicin only | -3.37 | -1.35 | -2.7 | 0.64 | active |
| Acap3 | 1 | low cell count without drug only | -1.8 | -3.54 | 0.79 | 0.78 | inactive |
| Zfp74 | 1 | high cell count without drug only | 0.56 | 2.19 | -0.67 | 0.99 | inactive |

Looked up above:
Under “viability z-score without drug”, Gbx2 is entered as -0.67
Snapc1, activity call → inactive
